Data taken from PMC3121800.
These are yes or no findings as the source states them, for the method shown. Binding seen in cells or lysates may run through a third protein. Some binding calls cover weakened binding; strength is not graded here. Sequences can lack the tags named with a protein.

The chains behind the UniProt entries cited, without tags or fusion partners.
UniProt B0B9M5: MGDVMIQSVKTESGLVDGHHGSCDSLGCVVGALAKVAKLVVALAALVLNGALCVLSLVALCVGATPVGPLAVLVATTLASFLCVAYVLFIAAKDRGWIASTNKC
UniProt B0B9M3: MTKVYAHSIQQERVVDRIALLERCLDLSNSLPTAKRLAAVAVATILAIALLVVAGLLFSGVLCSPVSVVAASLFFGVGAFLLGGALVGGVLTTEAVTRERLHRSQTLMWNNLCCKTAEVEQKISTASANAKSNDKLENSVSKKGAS
UniProt B0B9M4: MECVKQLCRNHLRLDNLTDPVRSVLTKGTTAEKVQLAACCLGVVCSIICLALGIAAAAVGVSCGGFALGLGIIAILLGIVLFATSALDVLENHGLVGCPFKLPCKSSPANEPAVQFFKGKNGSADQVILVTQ

How the values were obtained:
Test in all cases: co-IP; HEK293 co-transfected 48 h; lysis in 20 mM Tris pH 7.5, 150 mM NaCl, 2 mM EDTA, 1% Triton X-100; anti-FLAG M2 agarose beads 2 h, 4°C; eluted with 3XFLAG peptide; immunoblot with anti-GFP and anti-FLAG
[1] = biological target: 3xFLAG-IncF (C. trachomatis (L2/434/Bu)) (UniProt B0B9M5)
[2] = biological target: 3xFLAG-IncD (C. trachomatis (L2/434/Bu)) (UniProt B0B9M3)
[3] = biological target: 3xFLAG-IncE (C. trachomatis (L2/434/Bu)) (UniProt B0B9M4)

B1: CERT-GFP fusion protein containing full-length CERT (protein, UniProt Q9Y5P4-2 1-598)
chain: MSDNQSWNSSGSEEDPETESGPPVERCGVLSKWTNYIHGWQDRWVVLKNNALSYYKSEDETEYGCRGSICLSKAVITPHDFDECRFDISVNDSVWYLRAQDPDHRQQWIDAIEQHKTESGYGSESSLRRHGSMVSLVSGASGYSATSTSSFKKGHSLREKLAEMETFRDILCRQVDTLQKYFDACADAVSKDELQRDKVVEDDEDDFPTTRSDGDFLHSTNGNKEKLFPHVTPKGINGIDFKGEAITFKATTAGILATLSHCIELMVKREDSWQKRLDKETEKKRRTEEAYKNAMTELKKKSHFGGPDYEEGPNSLINEEEFFDAVEAALDRQDKIEEQSQSEKVRLHWPTSLPSGDAFSSVGTHRFVQKVEEMVQNHMTYSLQDVGGDANWQLVVEEGEMKVYRREVEENGIVLDPLKATHAVKGVTGHEVCNYFWNVDVRNDWETTIENFHVVETLADNAIIIYQTHKRVWPASQRDVLYLSVIRKIPALTENDPETWIVCNFSVDHDSAPLNNRCVRAKINVAMICQTLVSPPEGNQEISRDNILCKITYVANVNPGGWAPASVLRAVAKREYPKFLKRFTSYVQEKTAGKPILF
binding [1]: no binding
binding [2]: binds
binding [3]: no binding

B2: PX-YFP (phosphoinositide binding domain of p40phox) (domain or fragment, UniProt Q15080 19-140)
chain: DVAISANIADIEEKRGFTSHFVFVIEVKTKGGSKYLIYRRYRQFHALQSKLEERFGPDSKSSALACTLPTLPAKVYVGVKQEIAEMRIPALNAYMKSLLSLPVWVLMDEDVRIFFYQSPYDS
binding [2]: no binding
